Measurements as given in publication PMC3026782, “The Cytoskeletal Protein Ndel1 Regulates Dynamin 2 GTPase Activity” (PLoS ONE, 2011).
These are yes or no findings as the source states them, for the method shown. For some assays here: In cells and extracts the contact can be indirect. Some binding calls cover weakened binding; strength is not graded here. For some assays here: Sequences can lack the tags named with a protein. One block for each binder: values may come before it.

Legend:
[1] = biological target: T1, Ndel1 (human (endogenous in HeLa)) (UniProt Q9GZM8); assay: co-IP; immunoprecipitation with Ndel1 antibodies from lysates (HeLa cells, CAD cells, rat primary hippocampal neurons, adult mouse cortex); lysis buffer 50 mM Tris-HCl pH 7.4, 150 mM NaCl, 10 mM KCl, 1 mM EDTA, 0.5% NP40, 0.5% Tween-20; controls without antibody or with Myc antibody
T1 sequence: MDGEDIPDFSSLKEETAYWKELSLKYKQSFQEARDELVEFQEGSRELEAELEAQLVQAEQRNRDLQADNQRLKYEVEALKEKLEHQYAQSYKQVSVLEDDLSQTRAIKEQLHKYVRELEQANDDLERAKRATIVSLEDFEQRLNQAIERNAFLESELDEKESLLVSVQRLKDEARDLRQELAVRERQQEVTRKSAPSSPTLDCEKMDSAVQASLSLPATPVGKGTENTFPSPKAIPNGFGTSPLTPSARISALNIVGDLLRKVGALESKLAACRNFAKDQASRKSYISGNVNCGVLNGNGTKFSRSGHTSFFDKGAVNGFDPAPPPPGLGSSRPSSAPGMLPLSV

[2] = biological target: T2, GST-fused Dyn2 (UniProt P50570 1-870); assay: pull-down; GST-fused Dyn2, its GST fragments or GST with His-tagged Ndel1 on Glutathione Sepharose 4 Fast Flow or Ni-NTA Agarose beads; 20 mM HEPES, 150 mM NaCl, 1 mM DTT, 0.1% BSA, 4°C, 2 hours; both purified
T2 sequence (looked up): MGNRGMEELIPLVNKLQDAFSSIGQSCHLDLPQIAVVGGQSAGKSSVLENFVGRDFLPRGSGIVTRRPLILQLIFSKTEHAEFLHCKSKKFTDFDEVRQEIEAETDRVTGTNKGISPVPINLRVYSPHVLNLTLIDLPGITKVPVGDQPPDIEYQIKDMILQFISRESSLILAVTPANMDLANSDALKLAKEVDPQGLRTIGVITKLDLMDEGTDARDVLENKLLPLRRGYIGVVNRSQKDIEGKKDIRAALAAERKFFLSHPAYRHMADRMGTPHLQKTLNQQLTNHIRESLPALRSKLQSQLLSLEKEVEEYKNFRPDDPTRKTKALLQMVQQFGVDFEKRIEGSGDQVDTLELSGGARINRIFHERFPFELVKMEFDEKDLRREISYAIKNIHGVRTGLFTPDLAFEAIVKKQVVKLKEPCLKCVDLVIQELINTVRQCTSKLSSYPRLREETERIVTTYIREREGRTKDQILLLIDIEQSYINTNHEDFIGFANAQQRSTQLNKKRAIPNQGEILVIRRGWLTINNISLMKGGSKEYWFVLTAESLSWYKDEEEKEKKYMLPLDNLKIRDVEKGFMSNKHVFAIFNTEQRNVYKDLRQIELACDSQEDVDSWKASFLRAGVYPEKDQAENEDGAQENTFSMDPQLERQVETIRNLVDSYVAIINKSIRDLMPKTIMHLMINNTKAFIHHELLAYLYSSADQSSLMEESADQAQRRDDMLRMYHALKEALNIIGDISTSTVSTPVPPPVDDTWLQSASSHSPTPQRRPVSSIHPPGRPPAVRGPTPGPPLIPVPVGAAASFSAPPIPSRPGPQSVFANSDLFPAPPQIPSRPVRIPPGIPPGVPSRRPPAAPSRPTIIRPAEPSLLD

[3] = biological target: T2, GST-fused Dyn2; assay: far-Western, overlay or dot blot; one purified protein membrane-bound (His-Ndel1, 1 to 2 µg, or GST-Dyn2), overlaid with the other, detected with Dyn2 or Ndel1 antibody; both purified
[4] = biological target: T3, Ndel1 (mouse, endogenous) (mouse (endogenous in adult mouse cortex and CAD cells)) (UniProt Q9ERR1); assay: co-IP; immunoprecipitation with Ndel1 antibodies from lysates (HeLa cells, CAD cells, rat primary hippocampal neurons, adult mouse cortex); lysis buffer 50 mM Tris-HCl pH 7.4, 150 mM NaCl, 10 mM KCl, 1 mM EDTA, 0.5% NP40, 0.5% Tween-20; controls without antibody or with Myc antibody
T3 sequence: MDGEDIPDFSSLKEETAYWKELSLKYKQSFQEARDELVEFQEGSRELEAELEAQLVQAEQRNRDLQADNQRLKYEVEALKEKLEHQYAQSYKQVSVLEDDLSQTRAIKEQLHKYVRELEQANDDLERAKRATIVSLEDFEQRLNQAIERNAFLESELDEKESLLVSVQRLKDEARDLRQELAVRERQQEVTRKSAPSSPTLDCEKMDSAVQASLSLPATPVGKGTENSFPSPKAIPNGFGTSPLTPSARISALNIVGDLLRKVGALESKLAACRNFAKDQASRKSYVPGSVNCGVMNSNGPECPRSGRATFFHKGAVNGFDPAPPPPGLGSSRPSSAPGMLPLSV

[5] = biological target: T4, Ndel1 (rat, endogenous) (rat (endogenous in primary hippocampal neurons)) (UniProt Q78PB6); assay: as above
T4 sequence: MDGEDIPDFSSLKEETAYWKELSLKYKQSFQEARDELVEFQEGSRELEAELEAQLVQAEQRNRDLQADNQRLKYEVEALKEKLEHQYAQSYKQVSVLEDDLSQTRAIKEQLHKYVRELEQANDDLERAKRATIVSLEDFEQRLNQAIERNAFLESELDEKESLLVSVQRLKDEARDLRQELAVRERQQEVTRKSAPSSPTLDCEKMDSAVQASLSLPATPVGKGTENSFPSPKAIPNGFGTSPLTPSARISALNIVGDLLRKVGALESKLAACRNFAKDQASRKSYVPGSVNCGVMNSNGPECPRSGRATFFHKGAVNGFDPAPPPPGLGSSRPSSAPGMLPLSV

binding [1]: binds
B1: Lis1 (protein, UniProt P43034 1-410)
chain: MVLSQRQRDELNRAIADYLRSNGYEEAYSVFKKEAELDVNEELDKKYAGLLEKKWTSVIRLQKKVMELESKLNEAKEEFTSGGPLGQKRDPKEWIPRPPEKYALSGHRSPVTRVIFHPVFSVMVSASEDATIKVWDYETGDFERTLKGHTDSVQDISFDHSGKLLASCSADMTIKLWDFQGFECIRTMHGHDHNVSSVAIMPNGDHIVSASRDKTIKMWEVQTGYCVKTFTGHREWVRMVRPNQDGTLIASCSNDQTVRVWVVATKECKAELREHEHVVECISWAPESSYSSISEATGSETKKSGKPGPFLLSGSRDKTIKMWDVSTGMCLMTLVGHDNWVRGVLFHSGGKFILSCADDKTLRVWDYKNKRCMKTLNAHEHFVTSLDFHKTAPYVVTGSVDQTVKVWECR

binding [2]: binds | binding [3]: binds
B2: His-tagged Ndel1 (natural protein, UniProt Q9GZM8 1-345, looked up)
chain: MDGEDIPDFSSLKEETAYWKELSLKYKQSFQEARDELVEFQEGSRELEAELEAQLVQAEQRNRDLQADNQRLKYEVEALKEKLEHQYAQSYKQVSVLEDDLSQTRAIKEQLHKYVRELEQANDDLERAKRATIVSLEDFEQRLNQAIERNAFLESELDEKESLLVSVQRLKDEARDLRQELAVRERQQEVTRKSAPSSPTLDCEKMDSAVQASLSLPATPVGKGTENTFPSPKAIPNGFGTSPLTPSARISALNIVGDLLRKVGALESKLAACRNFAKDQASRKSYISGNVNCGVLNGNGTKFSRSGHTSFFDKGAVNGFDPAPPPPGLGSSRPSSAPGMLPLSV

binding [4]: binds
B3: Dynamin 2 (mouse, endogenous) (protein, UniProt P39054 1-870)
chain: MGNRGMEELIPLVNKLQDAFSSIGQSCHLDLPQIAVVGGQSAGKSSVLENFVGRDFLPRGSGIVTRRPLILQLIFSKTEYAEFLHCKSKKFTDFDEVRQEIEAETDRVTGTNKGISPVPINLRVYSPHVLNLTLIDLPGITKVPVGDQPPDIEYQIKDMILQFISRESSLILAVTPANMDLANSDALKLAKEVDPQGLRTIGVITKLDLMDEGTDARDVLENKLLPLRRGYIGVVNRSQKDIEGKKDIRAALAAERKFFLSHPAYRHMADRMGTPHLQKTLNQQLTNHIRESLPTLRSKLQSQLLSLEKEVEEYKNFRPDDPTRKTKALLQMVQQFGVDFEKRIEGSGDQVDTLELSGGARINRIFHERFPFELVKMEFDEKDLRREISYAIKNIHGVRTGLFTPDLAFEAIVKKQVVKLKEPCLKCVDLVIQELISTVRQCTSKLSSYPRLREETERIVTTYIREREGRTKDQILLLIDIEQSYINTNHEDFIGFANAQQRSTQLNKKRAIPNQGEILVIRRGWLTINNISLMKGGSKEYWFVLTAESLSWYKDEEEKEKKYMLPLDNLKIRDVEKGFMSNKHVFAIFNTEQRNVYKDLRQIELACDSQEDVDSWKASFLRAGVYPEKDQAENEDGAQENTFSMDPQLERQVETIRNLVDSYVAIINKSIRDLMPKTIMHLMINNTKAFIHHELLAYLYSSADQSSLMEESAEQAQRRDDMLRMYHALKEALNIIGDISTSTVSTPVPPPVDDTWLQNTSGHSPTPQRRPVSSVHPPGRPPAVRGPTPGPPLIPMPVGATSSFSAPPIPSRPGPQSVFANNDPFSAPPQIPSRPARIPPGIPPGVPSRRAPAAPSRPTIIRPAEPSLLD

binding [5]: binds
B4: Dynamin 2 (rat, endogenous) (protein, UniProt P39052 1-870)
chain: MGNRGMEELIPLVNKLQDAFSSIGQSCHLDLPQIAVVGGQSAGKSSVLENFVGRDFLPRGSGIVTRRPLILQLIFSKTEYAEFLHCKSKKFTDFDEVRQEIEAETDRVTGTNKGISPVPINLRVYSPHVLNLTLIDLPGITKVPVGDQPPDIEYQIKDMILQFISRESSLILAVTPANMDLANSDALKLAKEVDPQGLRTIGVITKLDLMDEGTDARDVLENKLLPLRRGYIGVVNRSQKDIEGRKDIRAALAAERKFFLSHPAYRHMADRMGTPHLQKTLNQQLTNHIRESLPTLRSKLQSQLLSLEKEVEEYKNFRPDDPTRKTKALLQMVQQFGVDFEKRIEGSGDQVDTLELSGGARINRIFHERFPFELVKMEFDEKDLRREISYAIKNIHGVRTGLFTPDLAFEAIVKKQVVKLKEPCLKCVDLVIQELISTVRQCTSKLSSYPRLREETERIVTTYIREREGRTKDQILLLIDIEQSYINTNHEDFIGFANAQQRSTQLNKKRAIPNQGEILVIRRGWLTINNISLMKGGSKEYWFVLTAESLSWYKDEEEKEKKYMLPLDNLKIRDVEKGFMSNKHVFAIFNTEQRNVYKDLRQIELACDSQEDVDSWKASFLRAGVYPEKDQAENEDGAQENTFSMDPQLERQVETIRNLVDSYVAIINKSIRDLMPKTIMHLMINNTKAFIHHELLAYLYSSADQSSLMEESAEQAQRRDDMLRMYHALKEALNIIGDISTSTVSTPVPPPVDDTWLQNTSSHSPTPQRRPVSSVHPPGRPPAVRGPTPGPPLIPMPVGATSSFSAPPIPSRPGPQNVFANNDPFSAPPQIPSRPARIPPGIPPGVPSRRAPAAPSRPTIIRPAEPSLLD
